# Results taken from paper PMC5095591.
# These are yes or no findings as the source states them, for the method shown. In cells and extracts the contact can be indirect. Some entries that bind do so weakly or less than the wild type. For some assays here: Where a sequence is shown, tags or fusion partners need not be part of it.
# T1: TEX12 (mouse) (UniProt Q9CR81)
# T1 sequence: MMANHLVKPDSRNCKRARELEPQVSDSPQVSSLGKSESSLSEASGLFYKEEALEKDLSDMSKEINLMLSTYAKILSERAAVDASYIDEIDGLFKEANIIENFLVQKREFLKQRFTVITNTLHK
# T2: Myc-SYCE1 (mouse) (UniProt Q9D495)
# T2 sequence: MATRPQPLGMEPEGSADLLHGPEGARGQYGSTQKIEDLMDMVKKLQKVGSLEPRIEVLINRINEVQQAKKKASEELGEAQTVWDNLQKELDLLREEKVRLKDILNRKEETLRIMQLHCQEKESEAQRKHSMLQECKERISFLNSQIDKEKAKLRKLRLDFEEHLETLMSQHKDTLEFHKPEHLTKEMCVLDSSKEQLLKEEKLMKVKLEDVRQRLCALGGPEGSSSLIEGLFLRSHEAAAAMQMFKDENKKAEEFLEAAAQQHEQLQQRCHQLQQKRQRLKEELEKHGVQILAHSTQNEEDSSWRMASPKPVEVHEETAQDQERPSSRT
# Key:
# [1] = target: T1, TEX12 (mouse); test: co-IP; HEK 293T cells transiently co-transfected; whole cell extracts cleared with protein G Sepharose; immunoprecipitation with anti-Flag, anti-EGFP or anti-Myc antibody; western blotting
# [2] = target: T2, Myc-SYCE1 (mouse); test: as above
binding [1],binding [2],Binder
binds,,"SYCE2 (protein, UniProt Q505B8 1-171) MERHGVAAPPVELKDQEPPAIVESGEHRQSENHEETPGSVAPSASCQLPGPFSSLDSSIETLKKKAQELIENINESRQKDHALMTNFRDSLKMKVSDLTEKLEERMYQVYSHHSKIIQERLQEFTQKMAKINHLEMELKQVCQTVETVYKDLCVQSEVPTCEEQNYKDGEC"
,binds,"SYCE3 (protein, UniProt B5KM66 1-88) MADSDPGERSYDNMLKMLSDLNKDLEKLLEEMEKISVQATWMAYDMVVMRTNPTLAESMRRLEDAFLNCKEEMEKNWQELLTETKRKQ"
